Data from the supplement of paper PMC5393889.
The list shows a part of the results.

What follows are compounds tested on Caenorhabditis elegans N2 (assay: aldicarb interaction hit call (worm growth perturbed in combination with 10 uM aldicarb in both replicates, no effect as single agent) (binary (1 = interacts)); higher = interacts with aldicarb (growth perturbed)). Conditions: first compound 1.5 µM; aldicarb concentration 10 µM; 6 days; 20 °C.

Structure (SMILES) | aldicarb interaction hit call
Fc1ccccc1Nc1nc(-c2ccccc2)cs1 [wact-596] + CNC(=O)O/N=C/C(C)(C)SC [aldicarb] | inactive: 0
COc1ccc2c(c1)c1nc(C)sc1n2CCN1CCCCC1.Cl [wact-168] + CNC(=O)O/N=C/C(C)(C)SC [aldicarb] | inactive: 0
O=C(Nc1cc(Cl)cc(Cl)c1)c1ccc(Cl)cc1 [wact-405] + CNC(=O)O/N=C/C(C)(C)SC [aldicarb] | active: 1
CNC(=O)COc1ccc2cc(Br)ccc2c1 [wact-628] + CNC(=O)O/N=C/C(C)(C)SC [aldicarb] | inactive: 0
FC(F)(F)c1cccc(-c2noc(-c3cccs3)n2)c1 [wact-180] + CNC(=O)O/N=C/C(C)(C)SC [aldicarb] | inactive: 0
c1ccc(OCc2nc(-c3ccncc3)no2)cc1 [wact-455] + CNC(=O)O/N=C/C(C)(C)SC [aldicarb] | inactive: 0
COc1ccc(NC(=O)N2CCCC(C(=O)c3ccc4ccccc4c3)C2)cc1 (stereo not given) [wact-333] + CNC(=O)O/N=C/C(C)(C)SC [aldicarb] | inactive: 0
O=C(NCCNc1ccc([N+](=O)[O-])cc1Cl)c1ccc(F)cc1 + CNC(=O)O/N=C/C(C)(C)SC [aldicarb] | inactive: 0
Fc1ccc(CN2CCCN(Cc3nc(-c4ccc5c(c4)OCO5)no3)CC2)cc1 [wact-295] + CNC(=O)O/N=C/C(C)(C)SC [aldicarb] | inactive: 0
CC(C)COc1ccc(-c2nc(-c3cccnc3)no2)cc1 [wact-558] + CNC(=O)O/N=C/C(C)(C)SC [aldicarb] | inactive: 0
